Measurements reported in PubChem BioAssay AID1159578 (Peter MacCallum Cancer Centre, 2015).
The deposit covers about 18,000 reagents; this is a random part of them. Of all reagents, about 1,030 (5.7%) were called active. 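Inactive calls also include pools with fewer than 3300 nuclei, whose migration was not assessed.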 Raw values are not corrected between plates. No sequences are given here.

Purpose: 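Knock-downs that alter how fast lymphatic endothelial cells migrate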 (primary screen)
Cell system: human lymphatic endothelial cells
Reagents: siRNA pool against human genes, 40 nM
Time to read-out: 48 h after transfection
Detection: 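High-content imaging of dye-stained cells in a scratch assay measures filled wound area and nuclei per well; duplicate means given as ratio to mock and robust z-score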
Direction: migration robust z-score: higher = faster migration into the scratch; migration relative to mock: higher = more scratch area covered than mock; nuclei per well: higher = more cells in the well
Hit rule: 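Migration changed when robust z exceeds 2 or falls below -2 and mean nuclei number is at least 3300; otherwise not called changed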
Calls: active = migration changed; inactive = no migration change, or too few cells

| gene symbol | migration robust z-score | migration class with cell-count check | migration relative to mock | nuclei per well, duplicate mean | activity call |
| --- | --- | --- | --- | --- | --- |
| CYTIP (GeneID 9595) | -1.78 | migration z between -2 and 2; enough cells | 0.42 | 5442 | inactive |
| PLXNA2 (GeneID 5362) | -1.23 | migration z between -2 and 2; enough cells | 0.57 | 5250 | inactive |
| EEA1 (GeneID 8411) | 1.01 | migration z between -2 and 2; enough cells | 1 | 6224 | inactive |
| RIGI (GeneID 23586) | -0.2 | migration z between -2 and 2; enough cells | 0.76 | 4374 | inactive |
| CHST2 (GeneID 9435) | 0.14 | migration z between -2 and 2; enough cells | 0.92 | 5114 | inactive |
| KASH5 (GeneID 147872) | -1.78 | migration z between -2 and 2; enough cells | 0.43 | 6068 | inactive |
| ATAD5 (GeneID 79915) | 0.1 | migration z between -2 and 2; enough cells | 0.91 | 5912 | inactive |
| MAML2 (GeneID 84441) | -0.46 | migration z between -2 and 2; enough cells | 0.72 | 5746 | inactive |
| RPL14 (GeneID 9045) | -0.38 | migration z between -2 and 2; enough cells | 0.78 | 3902 | inactive |
| HCCS (GeneID 3052) | 0.46 | migration z between -2 and 2; enough cells | 0.9 | 5222 | inactive |
| CDH18 (GeneID 1016) | 1.36 | migration z between -2 and 2; enough cells | 1.23 | 5622 | inactive |
| GPER1 (GeneID 2852) | 0 | migration z between -2 and 2; enough cells | 0.8 | 5157 | inactive |
| NOG (GeneID 9241) | -0.97 | migration z between -2 and 2; enough cells | 0.64 | 4586 | inactive |
| KCNK5 (GeneID 8645) | -2.05 | migration z below -2; enough cells | 0.41 | 5690 | active |
| TRAPPC10 (GeneID 7109) | -0.16 | migration z between -2 and 2; enough cells | 0.84 | 6544 | inactive |
| FBN2 (GeneID 2201) | 0.56 | migration z between -2 and 2; enough cells | 1.03 | 4962 | inactive |
| CSN1S1 (GeneID 1446) | -0.82 | migration z between -2 and 2; enough cells | 0.68 | 5444 | inactive |
| DPEP1 (GeneID 1800) | -0.54 | migration z between -2 and 2; enough cells | 0.7 | 5174 | inactive |
| ZNF521 (GeneID 25925) | 0.56 | migration z between -2 and 2; enough cells | 1.03 | 5136 | inactive |
| BATF2 (GeneID 116071) | -1.64 | migration z between -2 and 2; enough cells | 0.45 | 5822 | inactive |
| RBMY1B (GeneID 378948) | -0.49 | migration z between -2 and 2; enough cells | 0.76 | 5502 | inactive |
| IGDCC4 (GeneID 57722) | -0.15 | migration z between -2 and 2; enough cells | 0.84 | 6166 | inactive |
| WNT3A (GeneID 89780) | 0.32 | migration z between -2 and 2; enough cells | 0.97 | 5615 | inactive |

A portion of the results above, as a working copy:
| gene symbol | migration robust z-score | migration class with cell-count check | migration relative to mock | nuclei per well, duplicate mean | activity call |
| --- | --- | --- | --- | --- | --- |
| CYTIP (GeneID 9595) | -1.78 | migration z between -2 and 2; enough cells | 0.42 | 5442 | inactive |
| PLXNA2 (GeneID 5362) | -1.23 | migration z between -2 and 2; enough cells | 0.57 | 5250 | inactive |
